For at least one compound, name, drawing or mass did not settle the structure.
How the values were obtained:
[1] = system: synaptosomes from the striatal area of rat brain; assay: [3H]-dopamine release from rat striatal synaptosomes, continuous perfusion; format: biochemical, Sprague-Dawley rats; details: 0.2 ml of a 20 μM solution of ligand, relative to an equal concentration of (S)-(-)-nicotine
[2] = biological target: high affinity nicotinic receptors; assay: Inhibition of L-[3H]nicotine binding to mouse brain membrane preparations; parameters: species or system Mice (DBA strain); details: mouse brain membranes; 10 nM L-[3H]nicotine; 2 hr incubation at 4° C.; Ki calculated from IC50 by the method of Cheng et al.

SMILES | Dopamine Release (Percent release relative to (S)(-)nicotine) [1] [%] | Ki [2] [µM]
c1ccc(CCN2CCCCC2)nc1 [2-pyridylethylpiperidine] | 5 | 6.5
c1cncc(CN2CCCC2)c1 [3-pyridylmethylpyrrolidine] | 80 | 0.049

Source: US5214060A, “Method for treatment of neurodegenerative diseases” (R. J. Reynolds Tobacco Company, priority 1992, dated 1993)
